Three molecules from publication PMC5385539 can be followed below.

Sequences of proteins named here, by UniProt entry; tags and fusion partners are left off.
UniProt Q8CGN4: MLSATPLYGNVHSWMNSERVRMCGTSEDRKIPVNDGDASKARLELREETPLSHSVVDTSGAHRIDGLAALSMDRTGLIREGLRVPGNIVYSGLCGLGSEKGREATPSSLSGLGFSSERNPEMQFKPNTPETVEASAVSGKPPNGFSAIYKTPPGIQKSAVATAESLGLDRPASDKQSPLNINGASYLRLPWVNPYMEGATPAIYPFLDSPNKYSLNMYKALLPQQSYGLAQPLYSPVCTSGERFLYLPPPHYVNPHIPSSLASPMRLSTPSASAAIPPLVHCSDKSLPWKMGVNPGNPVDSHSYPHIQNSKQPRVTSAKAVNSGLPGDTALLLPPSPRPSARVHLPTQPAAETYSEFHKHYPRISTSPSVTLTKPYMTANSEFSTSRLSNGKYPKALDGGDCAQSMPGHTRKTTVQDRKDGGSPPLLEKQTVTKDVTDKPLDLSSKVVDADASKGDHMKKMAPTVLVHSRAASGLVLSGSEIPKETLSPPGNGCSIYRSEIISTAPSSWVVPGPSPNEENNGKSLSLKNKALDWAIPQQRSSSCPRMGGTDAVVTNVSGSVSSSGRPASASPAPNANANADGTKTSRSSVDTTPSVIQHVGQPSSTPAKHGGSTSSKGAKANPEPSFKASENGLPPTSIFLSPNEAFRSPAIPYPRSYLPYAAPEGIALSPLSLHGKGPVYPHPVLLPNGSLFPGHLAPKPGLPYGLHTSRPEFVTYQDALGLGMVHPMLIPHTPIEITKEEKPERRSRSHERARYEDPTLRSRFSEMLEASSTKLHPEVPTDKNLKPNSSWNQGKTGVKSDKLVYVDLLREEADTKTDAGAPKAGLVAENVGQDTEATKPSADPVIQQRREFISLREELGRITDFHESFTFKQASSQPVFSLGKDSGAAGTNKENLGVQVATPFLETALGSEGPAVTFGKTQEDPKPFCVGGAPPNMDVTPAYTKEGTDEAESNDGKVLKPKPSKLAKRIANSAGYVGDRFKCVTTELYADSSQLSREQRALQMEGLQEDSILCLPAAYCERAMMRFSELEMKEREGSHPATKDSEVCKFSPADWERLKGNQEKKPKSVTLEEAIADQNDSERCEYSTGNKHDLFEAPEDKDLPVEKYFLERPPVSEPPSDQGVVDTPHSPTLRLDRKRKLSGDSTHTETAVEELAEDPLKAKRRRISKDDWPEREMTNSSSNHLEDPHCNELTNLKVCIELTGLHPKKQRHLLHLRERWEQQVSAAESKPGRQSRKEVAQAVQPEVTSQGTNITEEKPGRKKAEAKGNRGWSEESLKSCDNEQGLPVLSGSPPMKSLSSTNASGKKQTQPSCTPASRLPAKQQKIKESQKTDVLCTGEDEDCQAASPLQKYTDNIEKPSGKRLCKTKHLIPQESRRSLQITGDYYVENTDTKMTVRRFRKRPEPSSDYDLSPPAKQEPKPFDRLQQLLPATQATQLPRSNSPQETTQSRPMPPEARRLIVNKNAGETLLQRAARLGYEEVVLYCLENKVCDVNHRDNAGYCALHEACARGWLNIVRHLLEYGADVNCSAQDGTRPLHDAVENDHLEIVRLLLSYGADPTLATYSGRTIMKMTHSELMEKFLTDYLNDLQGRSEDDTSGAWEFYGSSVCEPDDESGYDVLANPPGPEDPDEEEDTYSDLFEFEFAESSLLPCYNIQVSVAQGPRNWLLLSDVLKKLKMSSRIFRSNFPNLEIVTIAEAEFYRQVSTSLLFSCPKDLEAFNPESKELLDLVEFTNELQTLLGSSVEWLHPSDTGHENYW
UniProt Q80U70: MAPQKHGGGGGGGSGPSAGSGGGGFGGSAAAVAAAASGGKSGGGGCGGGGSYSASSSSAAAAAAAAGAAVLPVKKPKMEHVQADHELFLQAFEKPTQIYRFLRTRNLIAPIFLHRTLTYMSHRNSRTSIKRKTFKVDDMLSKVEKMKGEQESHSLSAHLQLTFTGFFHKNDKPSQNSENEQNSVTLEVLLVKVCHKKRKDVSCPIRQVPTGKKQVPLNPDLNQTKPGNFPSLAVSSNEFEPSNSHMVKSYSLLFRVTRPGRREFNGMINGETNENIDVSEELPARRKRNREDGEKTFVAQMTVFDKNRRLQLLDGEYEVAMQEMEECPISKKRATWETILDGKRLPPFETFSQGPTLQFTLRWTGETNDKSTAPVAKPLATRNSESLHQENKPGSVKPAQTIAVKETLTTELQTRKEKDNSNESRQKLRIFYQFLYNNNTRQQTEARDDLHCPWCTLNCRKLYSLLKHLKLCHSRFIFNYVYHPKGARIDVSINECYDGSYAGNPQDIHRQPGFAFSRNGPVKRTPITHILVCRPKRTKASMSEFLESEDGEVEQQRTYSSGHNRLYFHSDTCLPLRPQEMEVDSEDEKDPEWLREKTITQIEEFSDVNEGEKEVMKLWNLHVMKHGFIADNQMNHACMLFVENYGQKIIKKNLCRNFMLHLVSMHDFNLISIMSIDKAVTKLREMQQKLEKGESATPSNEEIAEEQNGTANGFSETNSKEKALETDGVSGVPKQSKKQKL

To fix the notation:
T1: Flag-tagged Pcgf1 (mouse) (UniProt Q8R023)
T1 sequence: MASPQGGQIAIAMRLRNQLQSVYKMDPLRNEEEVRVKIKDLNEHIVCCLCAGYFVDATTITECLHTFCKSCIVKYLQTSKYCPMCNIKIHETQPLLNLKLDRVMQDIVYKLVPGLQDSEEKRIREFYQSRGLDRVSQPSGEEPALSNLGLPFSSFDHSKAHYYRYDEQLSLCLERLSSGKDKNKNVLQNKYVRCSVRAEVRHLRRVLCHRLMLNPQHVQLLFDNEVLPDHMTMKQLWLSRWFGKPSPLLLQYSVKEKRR

B1: Rybp (protein, UniProt Q8CCI5 1-228)
chain: MTMGDKKSPTRPKRQAKPAADEGFWDCSVCTFRNSAEAFKCSICDVRKGTSTRKPRINSQLVAQQVAQQYATPPPPKKEKKEKVEKPDKEKPEKDKDISPSVTKKNTNKKTKPKSDILKDPPSEANSIQSANATTKTSETNHTSRPRLKNVDRSTAQQLAVTVGNVTVIITDFKEKTRSSSTSSSTVTSSAGSEQQNQSSSGSESTDKGSSRSSTPKGDMSAVNDESF

No constants are given. Whether binding was seen depends on the method and setting. In cells and extracts the contact can be indirect. Some binding calls cover weakened binding; strength is not graded here. Tags and fused reporters may be left off the sequences shown.

The target of this test is T1, Flag-tagged Pcgf1 (mouse). In words: co-IP; nuclear extracts of Pcgf1-/- ES cells rescued with Flag-tagged Pcgf1 incubated with anti-Flag M2 agarose beads overnight at 4 °C; washed 3 times with 20 mM Tris-HCl pH 8.0, 450 mM NaCl, 0.2 mM EDTA; bound proteins detected by Western blot; control: WT cells infected with empty vector. In general terms: In western blotting, separated proteins are transferred to a membrane and probed.
Consider BcoR (from UniProt Q8CGN4 1-1759), for which the binding entry is “binds”.

Suz12 (from UniProt Q80U70 1-741): the binding result was “no binding”. The value for B1 was “binds”.
